This is one part of the list.
How the values were obtained:
Experiment in all cases: log2 fold change, soluble protein after heating vs DMSO (PISA); higher = thermal stabilisation; K562 lysate, 10 uM; active = over 0.2 and 3.5 SD of the protein, either way, in both replicates (recomputed)
Tubastatin A = compound: CN1CCc2c(c3ccccc3n2Cc2ccc(C(=O)NO)cc2)C1 [Tubastatin A]
Outline: (§1)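 Values give the log-two fold change in thermal stability against solvent controls, from duplicates. Crude K562 extract at 1 mg/mL protein, made by dounce homogenisation in PBS pH 7.4 with 1 mM MgCl2, was treated with 10 μM compound for 30 min. After 3 min heating across 48°C-58°C, aliquots were pooled, adjusted to 0.5% NP-40 at 4°C and centrifuged at 21,000xg for 90 min. The supernatant was measured by TMTpro 16plex LC-MS/MS with channel sums equalised.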

Sequences of proteins named here, by UniProt entry; tags and fusion partners are left off. A change or cut given only in a name is not applied to a line headed by its entry.
UniProt Q66PJ3: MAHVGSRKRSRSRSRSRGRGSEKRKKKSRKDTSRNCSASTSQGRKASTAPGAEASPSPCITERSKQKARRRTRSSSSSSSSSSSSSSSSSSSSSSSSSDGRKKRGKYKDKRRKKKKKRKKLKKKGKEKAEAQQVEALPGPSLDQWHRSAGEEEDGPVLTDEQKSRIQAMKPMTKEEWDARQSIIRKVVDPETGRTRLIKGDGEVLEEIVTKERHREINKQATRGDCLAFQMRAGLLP
UniProt P02749: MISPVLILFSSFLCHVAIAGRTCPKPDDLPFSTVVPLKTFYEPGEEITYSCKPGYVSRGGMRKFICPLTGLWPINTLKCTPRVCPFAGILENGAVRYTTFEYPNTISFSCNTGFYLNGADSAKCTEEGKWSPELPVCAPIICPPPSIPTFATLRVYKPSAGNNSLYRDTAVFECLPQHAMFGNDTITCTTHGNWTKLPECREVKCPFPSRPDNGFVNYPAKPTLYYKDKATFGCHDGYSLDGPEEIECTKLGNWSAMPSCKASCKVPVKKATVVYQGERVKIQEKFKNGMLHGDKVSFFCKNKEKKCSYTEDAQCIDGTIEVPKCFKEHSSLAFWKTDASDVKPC
UniProt Q96B67: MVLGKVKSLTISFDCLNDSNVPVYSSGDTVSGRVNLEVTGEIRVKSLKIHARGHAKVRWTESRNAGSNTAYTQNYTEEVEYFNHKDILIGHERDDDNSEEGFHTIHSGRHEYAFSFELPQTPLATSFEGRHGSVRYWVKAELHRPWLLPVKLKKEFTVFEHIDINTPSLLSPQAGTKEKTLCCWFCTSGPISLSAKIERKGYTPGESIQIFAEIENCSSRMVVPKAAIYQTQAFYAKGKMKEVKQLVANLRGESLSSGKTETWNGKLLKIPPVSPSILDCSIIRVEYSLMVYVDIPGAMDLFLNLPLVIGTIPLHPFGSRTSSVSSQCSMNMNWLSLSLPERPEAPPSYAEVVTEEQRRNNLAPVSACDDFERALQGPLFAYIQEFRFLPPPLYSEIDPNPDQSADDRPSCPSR
UniProt Q9H2J1: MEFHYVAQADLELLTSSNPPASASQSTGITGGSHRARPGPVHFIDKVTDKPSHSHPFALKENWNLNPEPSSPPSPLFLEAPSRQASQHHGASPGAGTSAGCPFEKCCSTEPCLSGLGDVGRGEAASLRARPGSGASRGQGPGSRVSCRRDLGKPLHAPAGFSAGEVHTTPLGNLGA
UniProt Q9C0H5: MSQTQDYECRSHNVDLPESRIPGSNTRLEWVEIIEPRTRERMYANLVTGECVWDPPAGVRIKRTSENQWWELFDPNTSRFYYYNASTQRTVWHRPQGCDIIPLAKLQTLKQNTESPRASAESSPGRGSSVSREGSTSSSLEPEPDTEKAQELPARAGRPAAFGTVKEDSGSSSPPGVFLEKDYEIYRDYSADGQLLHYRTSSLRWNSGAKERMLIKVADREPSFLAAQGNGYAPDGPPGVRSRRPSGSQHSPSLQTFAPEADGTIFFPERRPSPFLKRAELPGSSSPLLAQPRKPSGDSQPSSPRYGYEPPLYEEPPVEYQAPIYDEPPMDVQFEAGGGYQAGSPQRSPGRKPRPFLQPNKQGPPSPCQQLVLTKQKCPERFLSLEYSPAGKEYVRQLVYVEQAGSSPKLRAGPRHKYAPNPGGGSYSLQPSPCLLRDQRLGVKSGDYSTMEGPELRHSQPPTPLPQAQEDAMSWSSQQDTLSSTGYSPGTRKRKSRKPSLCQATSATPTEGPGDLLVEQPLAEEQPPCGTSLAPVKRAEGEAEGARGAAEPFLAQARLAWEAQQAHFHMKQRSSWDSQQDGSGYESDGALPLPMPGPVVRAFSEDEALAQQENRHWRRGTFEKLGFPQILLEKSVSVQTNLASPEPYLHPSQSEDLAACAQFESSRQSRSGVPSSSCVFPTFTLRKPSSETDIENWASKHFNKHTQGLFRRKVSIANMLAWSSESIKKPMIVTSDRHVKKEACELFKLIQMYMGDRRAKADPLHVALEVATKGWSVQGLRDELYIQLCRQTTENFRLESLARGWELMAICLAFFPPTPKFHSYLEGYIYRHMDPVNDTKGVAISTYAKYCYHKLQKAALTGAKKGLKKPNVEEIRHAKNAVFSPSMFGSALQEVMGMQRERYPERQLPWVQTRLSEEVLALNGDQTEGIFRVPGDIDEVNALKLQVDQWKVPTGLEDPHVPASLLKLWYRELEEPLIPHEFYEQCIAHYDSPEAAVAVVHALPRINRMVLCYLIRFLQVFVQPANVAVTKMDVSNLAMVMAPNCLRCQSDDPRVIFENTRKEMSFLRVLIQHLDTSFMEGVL
UniProt Q9H6L4: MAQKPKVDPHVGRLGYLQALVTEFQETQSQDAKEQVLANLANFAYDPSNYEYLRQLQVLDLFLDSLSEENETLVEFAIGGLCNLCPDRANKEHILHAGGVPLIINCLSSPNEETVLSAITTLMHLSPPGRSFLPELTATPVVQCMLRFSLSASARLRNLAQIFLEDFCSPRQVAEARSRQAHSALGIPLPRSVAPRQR
UniProt P05090: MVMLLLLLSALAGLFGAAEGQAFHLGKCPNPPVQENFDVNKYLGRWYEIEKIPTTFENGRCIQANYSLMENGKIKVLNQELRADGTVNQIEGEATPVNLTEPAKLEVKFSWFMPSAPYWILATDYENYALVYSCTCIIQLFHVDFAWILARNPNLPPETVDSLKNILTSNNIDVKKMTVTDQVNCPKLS
UniProt P02656: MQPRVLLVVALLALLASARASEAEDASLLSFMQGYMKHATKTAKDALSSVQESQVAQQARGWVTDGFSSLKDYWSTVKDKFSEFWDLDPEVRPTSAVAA
UniProt Q7Z5H3: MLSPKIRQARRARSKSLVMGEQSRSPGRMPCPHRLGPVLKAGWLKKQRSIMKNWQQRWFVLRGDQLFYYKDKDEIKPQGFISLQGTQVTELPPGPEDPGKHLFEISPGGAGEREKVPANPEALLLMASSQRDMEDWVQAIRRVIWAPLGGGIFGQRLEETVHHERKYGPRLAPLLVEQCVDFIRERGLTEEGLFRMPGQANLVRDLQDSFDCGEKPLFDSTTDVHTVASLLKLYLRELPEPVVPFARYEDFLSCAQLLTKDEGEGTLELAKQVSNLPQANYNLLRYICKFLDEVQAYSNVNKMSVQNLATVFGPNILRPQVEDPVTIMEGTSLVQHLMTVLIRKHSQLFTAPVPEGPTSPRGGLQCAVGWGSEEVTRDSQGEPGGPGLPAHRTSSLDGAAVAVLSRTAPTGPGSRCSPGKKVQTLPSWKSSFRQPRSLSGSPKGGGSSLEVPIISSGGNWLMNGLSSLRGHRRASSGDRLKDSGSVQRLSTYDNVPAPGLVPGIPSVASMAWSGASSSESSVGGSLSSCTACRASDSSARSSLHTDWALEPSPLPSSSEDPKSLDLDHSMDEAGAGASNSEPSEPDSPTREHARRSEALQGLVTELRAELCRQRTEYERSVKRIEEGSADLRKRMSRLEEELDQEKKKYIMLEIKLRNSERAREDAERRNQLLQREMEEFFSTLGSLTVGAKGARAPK
UniProt Q9H0F7: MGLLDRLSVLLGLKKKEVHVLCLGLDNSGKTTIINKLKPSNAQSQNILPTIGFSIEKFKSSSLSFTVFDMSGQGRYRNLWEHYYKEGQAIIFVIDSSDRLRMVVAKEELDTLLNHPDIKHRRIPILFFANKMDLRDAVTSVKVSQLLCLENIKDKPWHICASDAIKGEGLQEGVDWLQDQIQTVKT
UniProt O14791: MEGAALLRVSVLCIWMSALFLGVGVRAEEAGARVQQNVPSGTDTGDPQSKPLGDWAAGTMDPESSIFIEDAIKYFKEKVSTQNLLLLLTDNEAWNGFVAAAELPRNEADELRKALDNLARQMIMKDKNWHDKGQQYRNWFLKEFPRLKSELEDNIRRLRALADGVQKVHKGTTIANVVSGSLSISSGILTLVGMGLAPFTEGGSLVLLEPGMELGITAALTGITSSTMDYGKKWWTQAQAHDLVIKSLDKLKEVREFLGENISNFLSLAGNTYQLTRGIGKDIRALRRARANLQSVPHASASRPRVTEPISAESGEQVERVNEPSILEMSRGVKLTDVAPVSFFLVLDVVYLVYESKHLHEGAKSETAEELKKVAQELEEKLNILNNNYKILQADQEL
UniProt Q9P2N2: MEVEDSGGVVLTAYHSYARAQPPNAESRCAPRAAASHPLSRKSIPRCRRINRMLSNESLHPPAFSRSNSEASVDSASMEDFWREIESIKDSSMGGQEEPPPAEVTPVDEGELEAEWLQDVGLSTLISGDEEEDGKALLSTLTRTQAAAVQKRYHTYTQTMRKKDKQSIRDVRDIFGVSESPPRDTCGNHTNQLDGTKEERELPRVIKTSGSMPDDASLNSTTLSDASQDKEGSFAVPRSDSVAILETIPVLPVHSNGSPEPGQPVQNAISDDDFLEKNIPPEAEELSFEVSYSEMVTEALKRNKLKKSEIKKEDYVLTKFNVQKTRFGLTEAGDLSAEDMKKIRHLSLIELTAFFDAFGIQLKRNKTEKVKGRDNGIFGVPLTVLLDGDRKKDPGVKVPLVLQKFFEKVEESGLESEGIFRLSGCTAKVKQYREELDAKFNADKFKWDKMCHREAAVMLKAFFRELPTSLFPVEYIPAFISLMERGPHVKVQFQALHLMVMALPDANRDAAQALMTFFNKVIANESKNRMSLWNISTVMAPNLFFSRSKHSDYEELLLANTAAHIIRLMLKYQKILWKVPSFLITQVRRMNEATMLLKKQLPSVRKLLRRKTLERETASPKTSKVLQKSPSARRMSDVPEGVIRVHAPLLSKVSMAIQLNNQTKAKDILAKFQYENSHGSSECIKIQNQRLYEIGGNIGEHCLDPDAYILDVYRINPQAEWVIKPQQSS
UniProt P29972: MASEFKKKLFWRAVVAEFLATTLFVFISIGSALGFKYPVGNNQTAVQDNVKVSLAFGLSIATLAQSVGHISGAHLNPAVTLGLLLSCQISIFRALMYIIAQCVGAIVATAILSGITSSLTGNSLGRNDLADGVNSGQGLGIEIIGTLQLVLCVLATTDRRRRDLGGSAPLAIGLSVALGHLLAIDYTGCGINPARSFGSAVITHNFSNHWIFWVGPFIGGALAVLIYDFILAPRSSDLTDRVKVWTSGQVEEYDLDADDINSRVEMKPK
UniProt Q96C12: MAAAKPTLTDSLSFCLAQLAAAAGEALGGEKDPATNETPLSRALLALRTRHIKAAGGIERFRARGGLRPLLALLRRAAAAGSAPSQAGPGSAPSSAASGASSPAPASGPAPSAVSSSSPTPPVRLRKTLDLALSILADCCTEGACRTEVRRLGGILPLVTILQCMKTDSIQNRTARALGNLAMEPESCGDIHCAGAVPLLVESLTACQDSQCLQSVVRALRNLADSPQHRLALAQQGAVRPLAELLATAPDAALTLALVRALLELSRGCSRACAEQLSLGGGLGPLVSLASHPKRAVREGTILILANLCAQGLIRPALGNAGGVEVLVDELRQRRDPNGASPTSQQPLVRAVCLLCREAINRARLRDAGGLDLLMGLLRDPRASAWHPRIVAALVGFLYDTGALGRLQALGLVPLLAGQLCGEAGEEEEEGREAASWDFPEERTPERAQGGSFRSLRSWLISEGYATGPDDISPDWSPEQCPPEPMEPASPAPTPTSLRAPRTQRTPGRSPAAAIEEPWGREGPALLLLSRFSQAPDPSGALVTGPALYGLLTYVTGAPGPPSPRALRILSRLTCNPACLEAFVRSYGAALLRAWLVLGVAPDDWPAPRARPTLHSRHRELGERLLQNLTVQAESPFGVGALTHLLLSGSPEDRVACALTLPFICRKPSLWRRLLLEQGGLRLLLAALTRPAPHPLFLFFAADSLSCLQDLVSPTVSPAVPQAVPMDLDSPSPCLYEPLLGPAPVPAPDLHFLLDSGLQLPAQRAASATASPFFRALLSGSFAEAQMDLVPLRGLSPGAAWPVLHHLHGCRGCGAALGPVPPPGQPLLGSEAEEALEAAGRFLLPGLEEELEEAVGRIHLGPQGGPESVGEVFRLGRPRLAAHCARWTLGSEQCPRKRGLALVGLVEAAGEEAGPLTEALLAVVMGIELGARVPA
UniProt Q9NUS5: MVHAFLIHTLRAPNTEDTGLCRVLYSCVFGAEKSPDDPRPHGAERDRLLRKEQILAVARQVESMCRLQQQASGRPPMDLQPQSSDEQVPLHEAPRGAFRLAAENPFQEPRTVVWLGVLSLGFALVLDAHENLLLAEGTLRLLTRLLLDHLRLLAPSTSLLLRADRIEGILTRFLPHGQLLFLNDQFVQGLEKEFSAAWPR
UniProt P35414: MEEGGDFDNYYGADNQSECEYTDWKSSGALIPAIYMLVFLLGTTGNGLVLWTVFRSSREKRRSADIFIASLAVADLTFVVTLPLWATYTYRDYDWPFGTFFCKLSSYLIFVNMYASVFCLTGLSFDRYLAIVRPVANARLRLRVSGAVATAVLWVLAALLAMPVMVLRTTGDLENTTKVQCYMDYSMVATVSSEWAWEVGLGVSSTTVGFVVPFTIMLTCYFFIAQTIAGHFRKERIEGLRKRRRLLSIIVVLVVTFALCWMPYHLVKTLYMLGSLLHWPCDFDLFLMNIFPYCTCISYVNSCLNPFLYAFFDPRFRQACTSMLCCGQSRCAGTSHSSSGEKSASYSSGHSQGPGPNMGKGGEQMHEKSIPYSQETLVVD

[1] = compound: CNc1nc(-c2ccc3c(N)n[nH]c3c2)cc(N2C[C@@H](C(=O)NC3CCCCC3)CC[C@H]2C)n1
Outline: as §1

encorafenib = compound: COC(=O)N[C@@H](C)CNc1nccc(-c2cn(C(C)C)nc2-c2cc(Cl)cc(NS(C)(=O)=O)c2F)n1 [encorafenib]
Outline: as §1

[2] = compound: COC(=O)[C@H](CCSC)NC(=O)C1=C(C=C(C=C1)NC[C@H](CS)N)C2=CC=CC=C2
Outline: as §1

duvelisib = compound: C[C@H](Nc1ncnc2nc[nH]c12)c1cc2cccc(Cl)c2c(=O)n1-c1ccccc1 [duvelisib]
Outline: as §1

tozasertib = compound: Cc1cc(Nc2cc(N3CCN(C)CC3)nc(Sc3ccc(NC(=O)C4CC4)cc3)n2)n[nH]1 [tozasertib]
Outline: as §1

alvocidib = compound: CN1CC[C@H](c2c(O)cc(O)c3c(=O)cc(-c4ccccc4Cl)oc23)[C@H](O)C1 [alvocidib]
Outline: as §1

defactinib = compound: CNC(=O)c1ccc(Nc2ncc(C(F)(F)F)c(NCc3nccnc3N(C)S(C)(=O)=O)n2)cc1 [defactinib]
Outline: as §1

[3] = compound: COc1cc2nc(-c3cc(F)ccc3O)nc(N[C@@H]3CNC[C@H]3C(C)(C)O)c2cc1OC
Outline: as §1

lapatinib = compound: CS(=O)(=O)CCNCc1ccc(-c2ccc3ncnc(Nc4ccc(OCc5cccc(F)c5)c(Cl)c4)c3c2)o1 [lapatinib]
Outline: as §1

[4] = compound: C[C@H](C1=CC=C(C=C1)C(=O)NC2=C3C=CNC3=NC=C2)N
Outline: as §1

gandotinib = compound: Cc1cc(Nc2cc(CN3CCOCC3)c3nc(C)c(Cc4ccc(Cl)cc4F)n3n2)n[nH]1 [gandotinib]
Outline: as §1

[5] = compound: Cc1cccc(CC(=O)N2CCc3c2ccc(-c2cn(C)c4ncnc(N)c24)c3F)n1
Outline: as §1

pictilisib = compound: CS(=O)(=O)N1CCN(Cc2cc3nc(-c4cccc5[nH]ncc45)nc(N4CCOCC4)c3s2)CC1 [pictilisib]
Outline: as §1

crizotinib = compound: C[C@@H](Oc1cc(-c2cnn(C3CCNCC3)c2)cnc1N)c1c(Cl)ccc(F)c1Cl [crizotinib]
Outline: as §1

doramapimod = compound: Cc1ccc(-n2nc(C(C)(C)C)cc2NC(=O)Nc2ccc(OCCN3CCOCC3)c3ccccc23)cc1 [doramapimod]
Outline: as §1

bafetinib = compound: Cc1ccc(NC(=O)c2ccc(CN3CC[C@H](N(C)C)C3)c(C(F)(F)F)c2)cc1Nc1nccc(-c2cncnc2)n1 [bafetinib]
Outline: as §1

[6] = compound: CNC(=O)C1=CC=CC=C1NC2=NC(=NC=C2Cl)NC3=C(C=C(C=C3)N4CCOCC4)OC
Outline: as §1

alisertib = compound: COc1cc(Nc2ncc3c(n2)-c2ccc(Cl)cc2C(c2c(F)cccc2OC)=NC3)ccc1C(=O)O [alisertib]
Outline: as §1

gefitinib = compound: COc1cc2ncnc(Nc3ccc(F)c(Cl)c3)c2cc1OCCCN1CCOCC1 [gefitinib]
Outline: as §1

Measured: log2 fold change

ARMC10 isoform 2 (UniProt Q8N2F6)
inactive: Tubastatin A 0.155 | [1] 0.107 | encorafenib -0.267 | [2] -0.046 | duvelisib -0.155 | tozasertib -0.083

ARL6IP4 isoform 4 (UniProt Q66PJ3)
inactive: alvocidib -0.191 | defactinib -0.091 | [3] -0.125 | lapatinib 0.141 | [4] -0.135 | gandotinib -0.068 | [5] -0.396

APOH (UniProt P02749)
inactive: [3] 0.042 | lapatinib 0.169 | pictilisib 0.265 | crizotinib 0.205 | doramapimod -0.124 | bafetinib 0.056

ARMC8 (UniProt C9JAA7)
inactive: encorafenib 0.211 | [2] 0.017 | tozasertib -0.068

APLF (UniProt Q8IW19)
inactive: [6] 0.048 | defactinib 0.106 | encorafenib 0.024 | [2] -0.114 | [3] 0.009 | lapatinib -0.098 | pictilisib -0.067 | crizotinib -0.009 | tozasertib 0.054 | doramapimod 0.042 | bafetinib -0.161

ARRDC3 (UniProt Q96B67)
inactive: [6] 0.013

ARHGEF40 (UniProt Q8TER5)
inactive: Tubastatin A -0.524 | [6] -0.008 | [1] 0.065 | alisertib -0.018 | [3] -0.027 | gefitinib 0.005 | lapatinib -0.005 | duvelisib -0.162

ARRB1 isoform 2 (UniProt P49407)
inactive: Tubastatin A 0.017 | [6] -0.003 | defactinib -0.158 | [1] 0.03 | encorafenib -0.04 | [2] 0.144 | alisertib 0.007 | [3] 0.002 | gefitinib 0.017 | lapatinib -0.012 | pictilisib -0.043 | crizotinib 0.051 | duvelisib -0.025 | tozasertib -0.083 | doramapimod -0.115 | bafetinib -0.024

ARRDC1-AS1 (UniProt Q9H2J1)
inactive: alvocidib 0.081 | alisertib -0.342 | gefitinib -0.061 | [4] -0.007 | gandotinib 0.005 | [5] -0.108

ARL6IP4 isoform 7 (UniProt Q66PJ3)
inactive: pictilisib 0.109 | bafetinib -0.122

ASAP2 (UniProt O43150)
inactive: [3] 0.172 | lapatinib 0.071

ARHGAP19 isoform 2 (UniProt Q14CB8)
inactive: Tubastatin A -0.109 | [6] 0.089 | defactinib 0.117 | [1] 0.22 | encorafenib -0.03 | [2] 0.054 | alisertib -0.004 | gefitinib 0.008 | pictilisib -0.21 | crizotinib -0.033 | duvelisib -0.085 | tozasertib 0.11 | doramapimod 0 | bafetinib -0.405

ARHGAP39 isoform 2 (UniProt Q9C0H5)
inactive: [3] 0.063 | lapatinib -0.146 | crizotinib 0.136 | doramapimod -0.188

APBA3 (UniProt O96018)
inactive: Tubastatin A -0.223 | [6] -0.056 | defactinib 0.085 | encorafenib 0.105 | [2] 0.177 | [3] 0.07 | lapatinib -0.021 | crizotinib -0.321 | tozasertib 0.051 | doramapimod 0.017

ARHGEF2 (UniProt V9GYF0)
inactive: Tubastatin A -0.07 | defactinib -0.211 | [1] 0.082 | encorafenib -0.035 | [2] 0.014 | alisertib -0.083 | [3] 0.112 | gefitinib 0.229 | lapatinib -0.134 | duvelisib 0.11 | tozasertib 0.041

ART3 (UniProt Q13508)
inactive: Tubastatin A -0.001

ARMC7 (UniProt Q9H6L4)
inactive: defactinib -0.285 | [1] 0.027 | crizotinib 0.056 | duvelisib 0.013 | doramapimod -0.077

APTX isoform 4 (UniProt Q7Z2E3)
inactive: alvocidib 0.054 | alisertib -0.124 | gefitinib 0.047 | [4] -0.044 | gandotinib 0.034 | [5] -0.037

ARHGEF16 (UniProt Q5VV41)
inactive: [6] 0.04 | encorafenib 0.006 | [2] 0.184 | tozasertib 0.004

ARL4A (UniProt P40617)
inactive: encorafenib 0.054 | [2] 0.065 | alisertib -0.073 | gefitinib 0.058 | tozasertib 0.029

APOD (UniProt P05090)
inactive: alvocidib -0.034 | [1] -0.293 | encorafenib 0.211 | [2] 0.164 | [3] -0.189 | lapatinib 0.449 | crizotinib 0.544 | [4] 0.277 | duvelisib -0.168 | gandotinib -0.117 | tozasertib 0.276 | doramapimod -0.403 | [5] -0.605

Copied from above (two entries):
ARHGEF2 (UniProt V9GYF0)
inactive: Tubastatin A -0.07 | defactinib -0.211 | [1] 0.082 | encorafenib -0.035 | [2] 0.014 | alisertib -0.083 | [3] 0.112 | gefitinib 0.229 | lapatinib -0.134 | duvelisib 0.11 | tozasertib 0.041

ART3 (UniProt Q13508)
inactive: Tubastatin A -0.001

Later entries

ARHGEF12 isoform 2 (UniProt Q9NZN5)
inactive: encorafenib 0.036 | [2] -0.106 | crizotinib -0.046 | tozasertib 0.008 | doramapimod -0.063

APOC3 (UniProt P02656)
inactive: defactinib -0.07 | [1] 0.222 | encorafenib -0.064 | [2] 0.045 | crizotinib -0.129 | duvelisib 0.051 | tozasertib 0.016 | doramapimod -0.014

ARHGAP22 isoform 2 (UniProt Q7Z5H3)
inactive: Tubastatin A 0 | [6] -0.007 | [1] 0.11 | encorafenib -0.059 | [2] -0.045 | [3] 0.097 | lapatinib 0.024 | crizotinib -0.064 | duvelisib 0.045 | tozasertib -0.065 | doramapimod -0.042

ARL6 isoform 2 (UniProt Q9H0F7)
inactive: [6] -0.195 | crizotinib 0.011 | doramapimod 0.058

ARHGAP27 (UniProt Q6ZUM4)
inactive: defactinib -0.016 | pictilisib 0.045 | bafetinib 0.051

APOL1 isoform 2 (UniProt O14791)
inactive: alvocidib -0.048 | [1] 0.132 | encorafenib -0.047 | [2] 0.161 | [4] -0.284 | duvelisib 0.157 | gandotinib -0.093 | tozasertib -0.276 | [5] 0.254

ARHGAP28 (UniProt Q9P2N2)
inactive: [6] 0.054 | [1] 0.122 | [3] 0.044 | lapatinib 0.015 | pictilisib -0.009 | duvelisib 0.029 | bafetinib -0.003

ARL6IP4 isoform 2 (UniProt Q66PJ3)
inactive: alvocidib 0.025 | [3] 0.105 | lapatinib 0.087 | [4] -0.01 | gandotinib -0.106 | [5] 0.05

AQP1 (UniProt P29972)
inactive: alvocidib -0.072 | [4] -0.04 | gandotinib 0.064 | [5] 0.117

ARMC5 (UniProt Q96C12)
inactive: alvocidib 0.015 | [4] -0.064 | gandotinib -0.173 | [5] 0.059

AP5S1 (UniProt Q9NUS5)
inactive: Tubastatin A 0.177 | [6] -0.321 | [1] 0.119 | encorafenib 0.058 | [2] -0.157 | [3] -0.702 | lapatinib 0.133 | crizotinib -0.006 | duvelisib -0.024 | tozasertib -0.131 | doramapimod -0.111

APLNR (UniProt P35414)
inactive: alvocidib 0.006 | [4] 0.07 | gandotinib 0 | [5] 0.066

From the supplement of paper PMC10849652
